These are yes or no findings as the source states them, for the method shown. A result given as binding can be weak or reduced; the word gives no strength. Tags and fused reporters may be left off the sequences shown. Values belong to the binder of their own block, whether it stands above or below them.
Experiments:
[1] = target: APC/C activator subunit CDC20; test: two-hybrid
[2] = target: N-terminal domain of Arabidopsis SEPARASE, fused with the binding domain (BD) (Arabidopsis thaliana); test: two-hybrid

- binding [1]: binds
- binding [2]: binds
B1: PATRONUS2 (PANS2), fused with the activating domain (AD) (protein, UniProt Q94CK6 1-194)
chain: MANTILRGQMIFQDENALAALGKKAVAAGKGKSSLAAPKKNGAGFGSRKALHDITNKSKLQPQASSTTRKDVEGVDFDIAKEGFLHDHSKCIEEQQQDQWDSYFSEHIILHGHETNIKEGVPQYNNIQEIDAENSWDELKEIPMEEFSDLLECSTQWRSPPDSLSHHHSSLPSSPLPWHFETVEFKLKEDEDTT

- binding [2]: binds
B2: PATRONUS1 (PANS1), fused with the activating domain (AD) (protein, UniProt Q9LJG6 1-193)
chain: MANMNALQQMIFPDENAPIHRKKSVTAASVKSKGTVLGQKKPGGARKALNDITNKSGIHAKAAASSKNKQIASAAVKEIDIAGERFLHDHSKCIKEQQNLWDDHYSADLMLLHHGSSIKEKHLNWDIEKMDAKDDLTYEEPEEMASPKFSDWLKNSTPWRSPIRHGSMMPSTPLAWRFDSCEFTLKEDSDDLF

Source: doi:10.1101/606285
